Measurements taken from patent US20110212078A1, “SYNTHESIS AND USE OF HETEROCYCLIC ANTIBACTERIAL AGENTS” (priority 2008, published 2011).
Some entries share one result that the patent states for a list of compounds.

Molecular target: T1, LpxC enzyme (Escherichia coli, UniProt P0A725)
T1 sequence (P0A725 1-305): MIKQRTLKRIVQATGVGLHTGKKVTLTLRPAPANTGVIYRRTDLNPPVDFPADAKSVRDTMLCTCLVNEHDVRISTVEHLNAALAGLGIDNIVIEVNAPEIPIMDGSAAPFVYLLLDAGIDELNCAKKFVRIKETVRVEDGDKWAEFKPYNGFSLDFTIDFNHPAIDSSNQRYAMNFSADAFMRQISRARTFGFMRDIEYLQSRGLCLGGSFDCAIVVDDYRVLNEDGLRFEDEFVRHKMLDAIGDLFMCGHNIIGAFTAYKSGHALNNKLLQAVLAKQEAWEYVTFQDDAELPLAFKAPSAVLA
Assay: standard LpxC assay (RapidFire high-throughput mass spectrometry)
Type: biochemical
Conditions: 0.2 nM LpxC enzyme, 1.0 μM UDP-3-O-(R-3-hydroxymyristoyl)-N-acetylglucosamine, 60 minutes at room temperature; read-out: E. coli IC50
Experimental: The standard LpxC assay consists of 0.2 nM LpxC enzyme, 1.0 μM UDP-3-O—(R-3-hydroxymyristoyl)-N-acetylglucosamine, and test compound, in assay buffer and 2% DMSO. Assay buffer is comprised of 25 mM HEPES, pH 7.3, 150 mM NaCl, 2.0 mM DTT, and 0.01% BSA. The enzyme reaction is carried out in a 96-well assay plate, in a final volume of […]. Solutions of test compounds are prepared in 100% DMSO. Reaction additions, in order, are (1) 2.0 μL compound solution, (2) 80 μL of assay buffer, (3) […] of 10 μM UDP-3-O—(R-3-hydroxymyristoyl)-N-acetylglucosamine (in assay buffer) and, (4) 10 μL of LpxC enzyme (20 nM in assay buffer) to initiate the reaction. In positive control reactions, addition (1) has 2.0 μL of 100% DMSO (without compound); these reactions are used as the total signal (TSB) value. Reactions are incubated at room temperature for 60 minutes when 10 μL of 1 N HCl is added to stop the reaction. The plate is shaken by hand for 10 seconds to ensure complete quenching. Assay plates are sealed with foil tape, and stored at −80° C. for 24-48 hr prior to analysis.
The concentrations of substrate and product in the reaction mixtures are determined with BioTrove's proprietary RapidFire™ high-throughput mass spectrometry (HTMS). Assay mixtures are partially purified with reverse phase chromatography, where they are washed with water containing 5 mM ammonium formate and eluted onto the mass spectrometer in 80% acetonitrile, 20% water, and 5 mM ammonium formate. The mass spectrometry peak areas of the substrate and product are measured to determine the concentration of these analytes. The assay signal is the percentage of substrate that is converted to product. Percent inhibition, % I, in test samples is determined from the following equation: […]
Using this method, the following E. coli IC50 (nM) data were obtained for selected Compounds of Formula (I);

## C[C@@H](O)[C@@H](C(=O)NO)N1Cc2cc(Br)ccc2C1=O [Compound 12]
  IC50: < 10 µM

## C[C@@H](O)[C@@H](C(=O)NO)N1Cc2cc(C#Cc3ccc(-c4ccccc4)cc3)ccc2C1=O [Compound 13]
  IC50: < 10 µM

## CC(O)C(C(=O)NO)N1C(=O)c2ccc(C#Cc3ccccc3)cc2C1=O (stereo not shown) [Compound 74]
  IC50: < 10 µM

## C[C@@H](O)[C@@H](C(=O)NO)N1Cc2cc(C#Cc3ccccc3)ccc2C1=O [Compound 11]
  IC50: < 10 µM

## C[C@@H](O)[C@@H](C(=O)NO)N1Cc2cc(-c3ccccc3)ccc2C1=O [Compound 26]
  IC50: < 10 µM

## C[C@@H](O)[C@@H](C(=O)NO)N1Cc2cc(N3CCC(c4ccc(-c5ccccc5)cc4)CC3)ccc2C1=O [Compound 53]
  IC50: < 10 µM

## C[C@@H](O)[C@@H](C(=O)NO)N1Cc2cc(C#Cc3cccc(-c4ccccc4)c3)ccc2C1=O [Compound 14]
  IC50: < 10 µM

## C[C@@H](O)[C@@H](C(=O)NO)N1Cc2ccc(C#Cc3ccccc3)cc2C1=O [Compound 20]
  IC50: < 10 µM

## C[C@@H](O)[C@@H](C(=O)NO)N1Cc2cc(N3CCC(c4ccc(C#Cc5ccccc5)cc4)CC3)ccc2C1=O [Compound 48]
  IC50: < 10 µM

## C[C@@H](O)[C@@H](C(=O)NO)N1Cc2cc(N3CCN(c4ccc(C#Cc5ccccc5)cc4)CC3)ccc2C1=O [Compound 49]
  IC50: < 10 µM

## C[C@@H](O)[C@@H](C(=O)NO)N1Cc2cc(N3CCN(c4ccccc4)CC3)ccc2C1=O [Compound 52]
  IC50: < 10 µM

## CC(O)C(C(=O)NO)n1[nH]c2cc(C#Cc3ccccc3)ccc2c1=O (stereo not shown) [Compound 65]
  IC50: < 10 µM

## C[C@@H](O)[C@@H](C(=O)NO)N1Cc2ccc(Cl)cc2C1=O [Compound 21]
  IC50: < 10 µM

## C[C@@H](O)[C@@H](C(=O)NO)N1Cc2cc(Cc3ccc(-c4ccccc4)cc3)ccc2C1=O [Compound 31]
  IC50: < 10 µM

## C[C@@H](O)[C@@H](C(=O)NO)N1Cc2cc(-c3ccc(C#Cc4ccccc4)cc3)ccc2C1=O [Compound 36]
  IC50: < 10 µM

## C[C@@H](O)[C@@H](C(=O)NO)N1CC2CN(c3ccc(C#Cc4ccccc4)cc3)CCN2C1=O (stereo partly shown) [Compound 91]
  IC50: < 10 µM

## C[C@@H](O)[C@@H](C(=O)NO)N1CC2CN(Cc3ccc(C#Cc4ccccc4)cc3)CCN2C1=O (stereo partly shown) [Compound 88]
  IC50: < 10 µM

## C[C@@H](O)[C@@H](C(=O)NO)N1Cc2cc(-c3ccc(-c4ccccc4)cc3)ccc2C1=O [Compound 32]
  IC50: < 10 µM

## CC(O)C(C(=O)NO)N1C(=O)c2ccc(Br)cc2C1=O (stereo not shown) [Compound 80]
  IC50: < 10 µM

## C[C@@H](O)[C@@H](C(=O)NO)N1Cc2cc(N3CCN(c4ccc(-c5ccccc5)cc4)CC3)ccc2C1=O [Compound 51]
  IC50: < 10 µM

## CC(O)C(C(=O)NO)N1C(=O)c2ccc(-c3ccccc3)cc2C1=O (stereo not shown) [Compound 79]
  IC50: < 10 µM

## C[C@@H](O)[C@@H](C(=O)NO)N1Cc2cc(N3CCN(c4ccc(C(=O)Cc5ccccc5)cc4)CC3)ccc2C1=O [Compound 50]
  IC50: < 10 µM
